Holding throughout (assay): co-purification
Assay [1] concerns the target T1, Cdc10-GFP (budding yeast) (UniProt P25342).
T1 sequence: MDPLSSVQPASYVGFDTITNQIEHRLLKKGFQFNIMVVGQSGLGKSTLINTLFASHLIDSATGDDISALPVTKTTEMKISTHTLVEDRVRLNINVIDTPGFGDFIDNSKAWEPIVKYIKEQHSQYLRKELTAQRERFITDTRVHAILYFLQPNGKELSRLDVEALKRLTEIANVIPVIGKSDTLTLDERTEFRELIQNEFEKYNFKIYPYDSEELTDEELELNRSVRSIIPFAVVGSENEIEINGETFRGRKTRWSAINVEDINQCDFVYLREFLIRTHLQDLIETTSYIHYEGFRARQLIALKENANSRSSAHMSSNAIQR

The target of another assay is T2, SEPT9 (human), Q9UHD8.
T2 chain: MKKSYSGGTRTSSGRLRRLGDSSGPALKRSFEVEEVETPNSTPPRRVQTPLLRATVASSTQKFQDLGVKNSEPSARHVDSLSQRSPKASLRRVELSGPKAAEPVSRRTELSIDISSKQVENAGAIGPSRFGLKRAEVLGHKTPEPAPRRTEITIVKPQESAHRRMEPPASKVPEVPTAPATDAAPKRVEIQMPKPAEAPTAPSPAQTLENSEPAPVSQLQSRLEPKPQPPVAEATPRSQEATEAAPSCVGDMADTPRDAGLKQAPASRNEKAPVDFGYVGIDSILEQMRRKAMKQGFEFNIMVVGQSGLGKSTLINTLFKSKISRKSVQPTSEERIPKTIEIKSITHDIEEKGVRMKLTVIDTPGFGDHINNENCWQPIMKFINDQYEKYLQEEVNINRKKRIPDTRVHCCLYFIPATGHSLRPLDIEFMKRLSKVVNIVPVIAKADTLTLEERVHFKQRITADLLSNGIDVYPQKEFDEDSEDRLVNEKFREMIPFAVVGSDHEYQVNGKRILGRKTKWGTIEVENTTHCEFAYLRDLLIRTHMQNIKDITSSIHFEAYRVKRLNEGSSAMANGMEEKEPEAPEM
Particulars: remark: other sources report otherwise.

For another assay, the target named is T3, SEPT7 (human) (UniProt Q16181).
T3 sequence: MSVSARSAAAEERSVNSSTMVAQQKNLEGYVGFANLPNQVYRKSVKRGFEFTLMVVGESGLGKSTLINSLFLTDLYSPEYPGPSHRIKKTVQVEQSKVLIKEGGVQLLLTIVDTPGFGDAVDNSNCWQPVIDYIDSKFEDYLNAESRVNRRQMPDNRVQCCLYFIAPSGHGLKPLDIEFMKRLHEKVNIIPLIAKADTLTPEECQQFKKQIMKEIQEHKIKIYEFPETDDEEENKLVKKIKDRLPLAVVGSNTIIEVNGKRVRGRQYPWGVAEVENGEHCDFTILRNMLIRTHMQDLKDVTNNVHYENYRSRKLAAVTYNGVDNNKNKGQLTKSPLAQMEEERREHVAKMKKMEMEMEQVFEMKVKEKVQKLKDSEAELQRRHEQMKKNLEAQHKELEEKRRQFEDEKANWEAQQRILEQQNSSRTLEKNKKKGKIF

In a further assay the target is T4, SEPT2GFP (human) (UniProt Q15019).
T4 sequence: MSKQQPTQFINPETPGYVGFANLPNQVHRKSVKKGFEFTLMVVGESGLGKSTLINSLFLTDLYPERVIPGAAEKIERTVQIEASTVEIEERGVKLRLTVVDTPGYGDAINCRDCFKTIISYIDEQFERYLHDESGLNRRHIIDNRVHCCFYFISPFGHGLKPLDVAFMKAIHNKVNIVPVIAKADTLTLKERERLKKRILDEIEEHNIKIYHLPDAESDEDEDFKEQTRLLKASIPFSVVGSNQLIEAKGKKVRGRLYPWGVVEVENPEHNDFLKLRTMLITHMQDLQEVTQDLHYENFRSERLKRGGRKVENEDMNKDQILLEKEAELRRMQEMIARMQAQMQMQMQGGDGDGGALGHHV

Another assay concerns the target T5, Cdc3 (budding yeast) (UniProt P32457).
T5 sequence: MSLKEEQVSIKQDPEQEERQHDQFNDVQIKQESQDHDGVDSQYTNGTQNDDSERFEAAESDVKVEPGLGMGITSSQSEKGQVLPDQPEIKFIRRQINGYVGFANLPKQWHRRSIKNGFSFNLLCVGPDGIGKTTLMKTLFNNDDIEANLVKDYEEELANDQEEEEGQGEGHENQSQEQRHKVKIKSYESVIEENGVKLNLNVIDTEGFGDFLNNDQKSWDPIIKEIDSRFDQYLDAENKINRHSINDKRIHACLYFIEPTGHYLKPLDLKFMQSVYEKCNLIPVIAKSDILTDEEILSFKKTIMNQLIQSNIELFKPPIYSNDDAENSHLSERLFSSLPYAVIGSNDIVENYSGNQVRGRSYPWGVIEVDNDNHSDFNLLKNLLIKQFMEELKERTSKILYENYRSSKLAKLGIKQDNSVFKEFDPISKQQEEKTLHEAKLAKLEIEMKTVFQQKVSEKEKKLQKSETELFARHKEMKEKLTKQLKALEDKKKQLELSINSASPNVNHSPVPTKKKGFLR

A further assay has as its target T6, SEPT6 (human) (UniProt Q14141).
T6 sequence: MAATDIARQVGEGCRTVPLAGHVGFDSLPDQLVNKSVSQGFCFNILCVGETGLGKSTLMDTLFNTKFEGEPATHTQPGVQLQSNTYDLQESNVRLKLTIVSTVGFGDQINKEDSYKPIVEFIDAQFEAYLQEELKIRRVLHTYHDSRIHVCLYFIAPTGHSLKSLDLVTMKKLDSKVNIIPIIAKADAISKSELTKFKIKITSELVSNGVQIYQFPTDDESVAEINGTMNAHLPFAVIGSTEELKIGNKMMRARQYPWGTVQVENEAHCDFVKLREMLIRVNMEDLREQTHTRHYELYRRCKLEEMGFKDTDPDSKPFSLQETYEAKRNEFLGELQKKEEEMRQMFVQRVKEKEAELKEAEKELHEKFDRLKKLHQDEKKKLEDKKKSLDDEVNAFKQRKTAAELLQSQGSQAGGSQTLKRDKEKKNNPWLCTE

No constants are given. Whether binding was seen depends on the method and setting. Some binding calls cover weakened binding; strength is not graded here. For part of these data: Tags and fused reporters may be left off the sequences shown.

Experimental findings from article doi:10.1101/2025.10.08.681182 are described below.

B1: Cdc3 (protein, UniProt P32457 1-520)
chain: MSLKEEQVSIKQDPEQEERQHDQFNDVQIKQESQDHDGVDSQYTNGTQNDDSERFEAAESDVKVEPGLGMGITSSQSEKGQVLPDQPEIKFIRRQINGYVGFANLPKQWHRRSIKNGFSFNLLCVGPDGIGKTTLMKTLFNNDDIEANLVKDYEEELANDQEEEEGQGEGHENQSQEQRHKVKIKSYESVIEENGVKLNLNVIDTEGFGDFLNNDQKSWDPIIKEIDSRFDQYLDAENKINRHSINDKRIHACLYFIEPTGHYLKPLDLKFMQSVYEKCNLIPVIAKSDILTDEEILSFKKTIMNQLIQSNIELFKPPIYSNDDAENSHLSERLFSSLPYAVIGSNDIVENYSGNQVRGRSYPWGVIEVDNDNHSDFNLLKNLLIKQFMEELKERTSKILYENYRSSKLAKLGIKQDNSVFKEFDPISKQQEEKTLHEAKLAKLEIEMKTVFQQKVSEKEKKLQKSETELFARHKEMKEKLTKQLKALEDKKKQLELSINSASPNVNHSPVPTKKKGFLR
As for B1, in assay [1], the binding result is on record as “binds”.

B2: SEPT9, Q9UHD8 1-586 (protein)
chain: MKKSYSGGTRTSSGRLRRLGDSSGPALKRSFEVEEVETPNSTPPRRVQTPLLRATVASSTQKFQDLGVKNSEPSARHVDSLSQRSPKASLRRVELSGPKAAEPVSRRTELSIDISSKQVENAGAIGPSRFGLKRAEVLGHKTPEPAPRRTEITIVKPQESAHRRMEPPASKVPEVPTAPATDAAPKRVEIQMPKPAEAPTAPSPAQTLENSEPAPVSQLQSRLEPKPQPPVAEATPRSQEATEAAPSCVGDMADTPRDAGLKQAPASRNEKAPVDFGYVGIDSILEQMRRKAMKQGFEFNIMVVGQSGLGKSTLINTLFKSKISRKSVQPTSEERIPKTIEIKSITHDIEEKGVRMKLTVIDTPGFGDHINNENCWQPIMKFINDQYEKYLQEEVNINRKKRIPDTRVHCCLYFIPATGHSLRPLDIEFMKRLSKVVNIVPVIAKADTLTLEERVHFKQRITADLLSNGIDVYPQKEFDEDSEDRLVNEKFREMIPFAVVGSDHEYQVNGKRILGRKTKWGTIEVENTTHCEFAYLRDLLIRTHMQNIKDITSSIHFEAYRVKRLNEGSSAMANGMEEKEPEAPEM
For the molecule B2, the binding result with SEPT9 (human), Q9UHD8 was “binds”.

B3: SEPT9 (protein, UniProt Q9UHD8 1-586)
chain: MKKSYSGGTRTSSGRLRRLGDSSGPALKRSFEVEEVETPNSTPPRRVQTPLLRATVASSTQKFQDLGVKNSEPSARHVDSLSQRSPKASLRRVELSGPKAAEPVSRRTELSIDISSKQVENAGAIGPSRFGLKRAEVLGHKTPEPAPRRTEITIVKPQESAHRRMEPPASKVPEVPTAPATDAAPKRVEIQMPKPAEAPTAPSPAQTLENSEPAPVSQLQSRLEPKPQPPVAEATPRSQEATEAAPSCVGDMADTPRDAGLKQAPASRNEKAPVDFGYVGIDSILEQMRRKAMKQGFEFNIMVVGQSGLGKSTLINTLFKSKISRKSVQPTSEERIPKTIEIKSITHDIEEKGVRMKLTVIDTPGFGDHINNENCWQPIMKFINDQYEKYLQEEVNINRKKRIPDTRVHCCLYFIPATGHSLRPLDIEFMKRLSKVVNIVPVIAKADTLTLEERVHFKQRITADLLSNGIDVYPQKEFDEDSEDRLVNEKFREMIPFAVVGSDHEYQVNGKRILGRKTKWGTIEVENTTHCEFAYLRDLLIRTHMQNIKDITSSIHFEAYRVKRLNEGSSAMANGMEEKEPEAPEM
Regarding B3, the binding result with SEPT7 (human) is “binds”.

B4: SEPT6 (protein, UniProt Q14141 1-434)
chain: MAATDIARQVGEGCRTVPLAGHVGFDSLPDQLVNKSVSQGFCFNILCVGETGLGKSTLMDTLFNTKFEGEPATHTQPGVQLQSNTYDLQESNVRLKLTIVSTVGFGDQINKEDSYKPIVEFIDAQFEAYLQEELKIRRVLHTYHDSRIHVCLYFIAPTGHSLKSLDLVTMKKLDSKVNIIPIIAKADAISKSELTKFKIKITSELVSNGVQIYQFPTDDESVAEINGTMNAHLPFAVIGSTEELKIGNKMMRARQYPWGTVQVENEAHCDFVKLREMLIRVNMEDLREQTHTRHYELYRRCKLEEMGFKDTDPDSKPFSLQETYEAKRNEFLGELQKKEEEMRQMFVQRVKEKEAELKEAEKELHEKFDRLKKLHQDEKKKLEDKKKSLDDEVNAFKQRKTAAELLQSQGSQAGGSQTLKRDKEKKNNPWLCTE
On to B4, for which the binding entry with SEPT2GFP (human) is “binds”.

B5: Cdc12 (protein, UniProt P32468 1-407)
chain: MSAATATAAPVPPPVGISNLPNQRYKIVNEEGGTFTVMLCGESGLGKTTFINTLFQTVLKRADGQQHRQEPIRKTVEIDITRALLEEKHFELRVNVIDTPGFGDNVNNNKAWQPLVDFIDDQHDSYMRQEQQPYRTKKFDLRVHAVLYFIRPTGHGLKPIDIETMKRLSTRANLIPVIAKADTLTAQELQQFKSRIRQVIEAQEIRIFTPPLDADSKEDAKSGSNPDSAAVEHARQLIEAMPFAIVGSEKKFDNGQGTQVVARKYPWGLVEIENDSHCDFRKLRALLLRTYLLDLISTTQEMHYETYRRLRLEGHENTGEGNEDFTLPAIAPARKLSHNPRYKEEENALKKYFTDQVKAEEQRFRQWEQNIVNERIRLNGDLEEIQGKVKKLEEQVKSLQVKKSHLK
As for B5, in the assay with Cdc3 (budding yeast), the binding entry was “binds”.

B6: SEPT7 (protein, UniProt Q16181 1-437)
chain: MSVSARSAAAEERSVNSSTMVAQQKNLEGYVGFANLPNQVYRKSVKRGFEFTLMVVGESGLGKSTLINSLFLTDLYSPEYPGPSHRIKKTVQVEQSKVLIKEGGVQLLLTIVDTPGFGDAVDNSNCWQPVIDYIDSKFEDYLNAESRVNRRQMPDNRVQCCLYFIAPSGHGLKPLDIEFMKRLHEKVNIIPLIAKADTLTPEECQQFKKQIMKEIQEHKIKIYEFPETDDEEENKLVKKIKDRLPLAVVGSNTIIEVNGKRVRGRQYPWGVAEVENGEHCDFTILRNMLIRTHMQDLKDVTNNVHYENYRSRKLAAVTYNGVDNNKNKGQLTKSPLAQMEEERREHVAKMKKMEMEMEQVFEMKVKEKVQKLKDSEAELQRRHEQMKKNLEAQHKELEEKRRQFEDEKANWEAQQRILEQQNSSRTLEKNKKKGKIF
As for B6, the binding entry in the assay with SEPT6 (human) is reported as “binds”.
